Assay results published in the supplement of paper PMC12823440, “Inhibitors supercharge kinase turnover through native proteolytic circuits” (Nature, 2025).
Counter-ions that a name gives are not always drawn. This is one part of the list. The calls rarely recur for the same compound in another form.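 Kinases, fused to nanoluciferase, were expressed in K562 cells; luminescence was measured every 4 h from 2 to 18 h as percent of control (DMSO = 100%, positive control = 0%). A time point is decreased if signal falls significantly (2 sigma). Hits were called by the authors by a rule that is not shown; the count of time points alone does not decide it.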

Sequences of proteins named here, by UniProt entry; tags and fusion partners are left off. A change or cut given only in a name is not applied to a line headed by its entry.
UniProt Q9Y616: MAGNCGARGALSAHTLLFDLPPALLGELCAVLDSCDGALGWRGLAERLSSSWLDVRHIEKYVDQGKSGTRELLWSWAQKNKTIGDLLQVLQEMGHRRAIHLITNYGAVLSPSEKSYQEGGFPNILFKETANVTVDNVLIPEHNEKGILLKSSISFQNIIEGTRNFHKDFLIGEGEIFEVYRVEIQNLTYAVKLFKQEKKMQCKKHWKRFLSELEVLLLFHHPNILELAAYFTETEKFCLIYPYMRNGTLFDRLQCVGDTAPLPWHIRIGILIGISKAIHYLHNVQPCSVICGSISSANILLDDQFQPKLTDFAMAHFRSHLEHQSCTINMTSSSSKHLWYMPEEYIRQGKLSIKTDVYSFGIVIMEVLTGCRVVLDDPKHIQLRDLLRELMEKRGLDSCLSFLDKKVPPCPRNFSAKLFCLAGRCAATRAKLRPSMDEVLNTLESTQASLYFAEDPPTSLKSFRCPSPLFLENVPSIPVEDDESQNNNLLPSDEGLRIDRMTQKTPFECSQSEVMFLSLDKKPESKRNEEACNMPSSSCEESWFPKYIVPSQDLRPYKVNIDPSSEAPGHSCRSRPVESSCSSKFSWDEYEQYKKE
UniProt P23458: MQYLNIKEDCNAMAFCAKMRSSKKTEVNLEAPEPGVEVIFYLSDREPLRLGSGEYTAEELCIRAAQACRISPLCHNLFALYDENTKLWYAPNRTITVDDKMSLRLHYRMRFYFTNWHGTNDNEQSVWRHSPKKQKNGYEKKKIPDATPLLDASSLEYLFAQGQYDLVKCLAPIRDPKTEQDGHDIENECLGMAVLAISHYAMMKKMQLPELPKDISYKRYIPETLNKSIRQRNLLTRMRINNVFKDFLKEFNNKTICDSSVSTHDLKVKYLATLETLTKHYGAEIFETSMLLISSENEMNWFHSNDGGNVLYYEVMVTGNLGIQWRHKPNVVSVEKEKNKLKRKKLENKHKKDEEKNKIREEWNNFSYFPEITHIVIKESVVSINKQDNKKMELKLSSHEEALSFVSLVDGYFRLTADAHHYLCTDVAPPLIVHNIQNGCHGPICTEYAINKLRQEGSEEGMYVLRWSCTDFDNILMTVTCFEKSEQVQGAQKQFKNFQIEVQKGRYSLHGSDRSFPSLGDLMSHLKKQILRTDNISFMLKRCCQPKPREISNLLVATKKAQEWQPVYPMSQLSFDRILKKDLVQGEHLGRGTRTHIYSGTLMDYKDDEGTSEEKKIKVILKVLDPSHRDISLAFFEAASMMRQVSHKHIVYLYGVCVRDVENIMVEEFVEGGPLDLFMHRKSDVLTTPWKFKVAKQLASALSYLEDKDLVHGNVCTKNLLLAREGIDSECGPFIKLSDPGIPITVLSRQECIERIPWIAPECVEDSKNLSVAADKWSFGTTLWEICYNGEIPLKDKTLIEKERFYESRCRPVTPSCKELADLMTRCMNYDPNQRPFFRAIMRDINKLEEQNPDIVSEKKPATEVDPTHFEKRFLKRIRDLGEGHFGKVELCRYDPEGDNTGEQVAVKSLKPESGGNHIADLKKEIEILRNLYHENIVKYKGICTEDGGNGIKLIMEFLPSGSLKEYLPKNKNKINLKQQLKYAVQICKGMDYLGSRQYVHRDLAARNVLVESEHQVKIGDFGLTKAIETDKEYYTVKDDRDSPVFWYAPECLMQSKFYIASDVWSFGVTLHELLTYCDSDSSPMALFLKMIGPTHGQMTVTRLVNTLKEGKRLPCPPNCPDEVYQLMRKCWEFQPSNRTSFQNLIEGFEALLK
UniProt P06239: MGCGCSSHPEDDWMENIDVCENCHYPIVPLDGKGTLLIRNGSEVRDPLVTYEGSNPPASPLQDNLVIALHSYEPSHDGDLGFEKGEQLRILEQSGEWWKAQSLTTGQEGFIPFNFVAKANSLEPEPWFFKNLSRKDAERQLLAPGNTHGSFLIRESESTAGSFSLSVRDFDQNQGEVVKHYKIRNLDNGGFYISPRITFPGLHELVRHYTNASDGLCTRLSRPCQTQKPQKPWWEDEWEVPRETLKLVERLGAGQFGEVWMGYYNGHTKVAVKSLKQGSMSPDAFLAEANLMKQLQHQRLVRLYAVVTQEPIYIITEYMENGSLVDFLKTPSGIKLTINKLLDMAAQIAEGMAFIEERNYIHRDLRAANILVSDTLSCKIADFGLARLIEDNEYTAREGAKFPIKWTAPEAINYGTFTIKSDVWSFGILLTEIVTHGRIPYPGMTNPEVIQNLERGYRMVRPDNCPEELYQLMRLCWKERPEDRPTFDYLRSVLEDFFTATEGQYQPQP
UniProt P53667: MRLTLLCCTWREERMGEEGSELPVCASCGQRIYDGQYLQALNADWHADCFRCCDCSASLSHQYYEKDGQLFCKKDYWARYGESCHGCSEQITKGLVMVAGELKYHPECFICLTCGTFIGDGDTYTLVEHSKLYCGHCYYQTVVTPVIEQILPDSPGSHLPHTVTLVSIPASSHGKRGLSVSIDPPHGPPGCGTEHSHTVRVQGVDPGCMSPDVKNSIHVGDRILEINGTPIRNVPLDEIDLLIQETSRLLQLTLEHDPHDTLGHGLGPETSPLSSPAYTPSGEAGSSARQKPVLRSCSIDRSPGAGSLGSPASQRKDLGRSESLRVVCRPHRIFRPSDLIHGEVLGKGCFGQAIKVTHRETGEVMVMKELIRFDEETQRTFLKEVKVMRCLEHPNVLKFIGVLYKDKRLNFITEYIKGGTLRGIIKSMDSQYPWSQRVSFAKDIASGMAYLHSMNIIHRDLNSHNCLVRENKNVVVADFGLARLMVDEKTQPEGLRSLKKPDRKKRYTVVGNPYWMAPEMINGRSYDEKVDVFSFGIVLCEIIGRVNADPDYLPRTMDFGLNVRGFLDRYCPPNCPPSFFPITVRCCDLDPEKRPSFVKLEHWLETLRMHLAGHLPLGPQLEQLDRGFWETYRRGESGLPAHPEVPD
UniProt P53671: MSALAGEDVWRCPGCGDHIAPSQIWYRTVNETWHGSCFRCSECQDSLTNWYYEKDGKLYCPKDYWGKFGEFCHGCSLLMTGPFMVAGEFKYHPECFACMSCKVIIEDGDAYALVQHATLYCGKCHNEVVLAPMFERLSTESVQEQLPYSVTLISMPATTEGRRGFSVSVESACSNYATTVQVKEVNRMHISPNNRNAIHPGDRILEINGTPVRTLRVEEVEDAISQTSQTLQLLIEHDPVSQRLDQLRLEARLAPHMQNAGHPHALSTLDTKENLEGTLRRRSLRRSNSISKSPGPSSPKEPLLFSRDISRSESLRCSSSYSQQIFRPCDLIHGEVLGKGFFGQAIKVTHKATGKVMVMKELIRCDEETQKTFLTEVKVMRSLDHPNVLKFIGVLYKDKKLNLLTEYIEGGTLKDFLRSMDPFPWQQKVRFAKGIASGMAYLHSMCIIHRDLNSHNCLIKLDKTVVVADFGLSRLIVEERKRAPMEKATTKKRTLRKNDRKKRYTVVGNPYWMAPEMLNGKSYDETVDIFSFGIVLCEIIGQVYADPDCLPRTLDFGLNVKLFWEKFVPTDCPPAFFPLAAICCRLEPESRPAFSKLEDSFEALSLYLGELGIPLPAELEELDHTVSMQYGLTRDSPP
UniProt Q8IWU2: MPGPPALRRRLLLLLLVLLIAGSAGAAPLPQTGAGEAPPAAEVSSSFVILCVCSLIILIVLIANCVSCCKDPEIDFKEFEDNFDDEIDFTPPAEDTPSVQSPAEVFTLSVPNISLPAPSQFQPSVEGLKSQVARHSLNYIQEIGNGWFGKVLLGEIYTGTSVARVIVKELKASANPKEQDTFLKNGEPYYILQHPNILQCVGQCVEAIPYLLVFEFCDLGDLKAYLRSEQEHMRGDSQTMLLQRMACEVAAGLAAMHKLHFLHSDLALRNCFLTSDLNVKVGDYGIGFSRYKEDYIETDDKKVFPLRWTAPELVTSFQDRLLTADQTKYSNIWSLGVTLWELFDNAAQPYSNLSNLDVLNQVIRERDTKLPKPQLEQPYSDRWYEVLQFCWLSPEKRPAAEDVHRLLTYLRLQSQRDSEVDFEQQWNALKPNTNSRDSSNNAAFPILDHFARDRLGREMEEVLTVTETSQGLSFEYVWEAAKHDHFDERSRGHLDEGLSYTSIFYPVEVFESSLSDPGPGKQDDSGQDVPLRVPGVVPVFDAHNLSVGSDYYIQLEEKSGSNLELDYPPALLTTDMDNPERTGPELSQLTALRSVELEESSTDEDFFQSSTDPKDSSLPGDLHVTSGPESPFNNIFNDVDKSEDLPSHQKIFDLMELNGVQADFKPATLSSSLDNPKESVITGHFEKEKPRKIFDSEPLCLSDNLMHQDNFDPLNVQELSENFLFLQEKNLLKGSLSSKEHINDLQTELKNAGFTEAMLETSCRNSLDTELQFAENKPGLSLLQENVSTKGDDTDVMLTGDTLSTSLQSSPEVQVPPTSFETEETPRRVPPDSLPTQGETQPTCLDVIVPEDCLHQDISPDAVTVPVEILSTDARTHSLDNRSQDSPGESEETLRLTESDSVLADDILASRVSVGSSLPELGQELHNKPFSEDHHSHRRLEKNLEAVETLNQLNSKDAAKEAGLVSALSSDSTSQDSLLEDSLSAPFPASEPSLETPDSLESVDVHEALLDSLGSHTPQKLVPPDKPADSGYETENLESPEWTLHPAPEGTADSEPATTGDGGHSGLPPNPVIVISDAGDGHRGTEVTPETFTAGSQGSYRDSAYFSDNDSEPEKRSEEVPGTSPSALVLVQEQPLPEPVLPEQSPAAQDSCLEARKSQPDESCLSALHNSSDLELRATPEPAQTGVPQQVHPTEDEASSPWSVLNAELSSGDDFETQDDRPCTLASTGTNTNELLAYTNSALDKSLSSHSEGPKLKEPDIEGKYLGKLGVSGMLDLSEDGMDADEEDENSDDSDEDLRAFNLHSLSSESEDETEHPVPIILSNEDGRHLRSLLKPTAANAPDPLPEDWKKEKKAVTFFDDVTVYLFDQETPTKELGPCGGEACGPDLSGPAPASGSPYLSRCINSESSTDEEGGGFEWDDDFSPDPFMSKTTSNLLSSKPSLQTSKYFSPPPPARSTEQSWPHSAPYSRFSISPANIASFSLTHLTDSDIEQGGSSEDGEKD
UniProt P07948: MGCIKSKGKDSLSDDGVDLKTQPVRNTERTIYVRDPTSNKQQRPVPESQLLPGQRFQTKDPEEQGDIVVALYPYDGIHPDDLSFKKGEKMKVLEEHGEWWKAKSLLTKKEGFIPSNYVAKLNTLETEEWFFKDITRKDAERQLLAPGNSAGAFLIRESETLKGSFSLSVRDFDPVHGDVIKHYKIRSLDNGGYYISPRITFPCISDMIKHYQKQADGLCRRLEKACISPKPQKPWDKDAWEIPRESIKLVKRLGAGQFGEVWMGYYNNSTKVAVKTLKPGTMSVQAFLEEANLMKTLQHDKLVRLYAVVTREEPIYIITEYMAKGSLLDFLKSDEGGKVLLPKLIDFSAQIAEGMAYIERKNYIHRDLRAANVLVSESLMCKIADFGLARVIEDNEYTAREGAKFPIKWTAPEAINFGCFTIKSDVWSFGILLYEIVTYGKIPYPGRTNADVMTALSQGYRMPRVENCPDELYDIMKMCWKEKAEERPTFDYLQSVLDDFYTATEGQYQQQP
UniProt Q12851: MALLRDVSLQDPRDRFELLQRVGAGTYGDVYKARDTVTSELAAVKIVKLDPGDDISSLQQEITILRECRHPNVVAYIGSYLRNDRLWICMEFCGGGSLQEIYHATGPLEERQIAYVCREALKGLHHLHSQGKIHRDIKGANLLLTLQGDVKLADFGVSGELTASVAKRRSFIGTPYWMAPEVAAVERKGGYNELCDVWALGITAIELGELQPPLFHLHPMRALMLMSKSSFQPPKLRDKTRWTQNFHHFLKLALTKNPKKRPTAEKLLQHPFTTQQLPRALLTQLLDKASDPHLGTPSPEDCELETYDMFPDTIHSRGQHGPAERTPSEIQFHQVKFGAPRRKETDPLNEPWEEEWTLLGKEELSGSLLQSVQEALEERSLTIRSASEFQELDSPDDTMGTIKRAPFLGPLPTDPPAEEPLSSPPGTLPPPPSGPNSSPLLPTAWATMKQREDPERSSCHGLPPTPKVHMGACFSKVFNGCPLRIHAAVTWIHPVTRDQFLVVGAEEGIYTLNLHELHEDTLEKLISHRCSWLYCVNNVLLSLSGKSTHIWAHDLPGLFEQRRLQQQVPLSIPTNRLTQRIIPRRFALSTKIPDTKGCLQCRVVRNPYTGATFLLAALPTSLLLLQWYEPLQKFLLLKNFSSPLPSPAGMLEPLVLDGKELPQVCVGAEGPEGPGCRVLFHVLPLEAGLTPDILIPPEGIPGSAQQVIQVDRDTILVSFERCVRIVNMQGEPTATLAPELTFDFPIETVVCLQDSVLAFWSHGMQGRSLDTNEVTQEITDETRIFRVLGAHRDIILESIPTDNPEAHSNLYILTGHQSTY

Assays:
Assay in all cases: kinase-Nluc reporter destabilization hit call (1 = scored as downregulated) (binary); higher = compound decreases kinase abundance
Conditions in all cases: K562; 2-18 h
[1] = target: IRAK3 (UniProt Q9Y616)
[2] = target: JAK1 (UniProt P23458)
[3] = target: LCK (UniProt P06239)
[4] = target: LIMK1 (UniProt P53667)
[5] = target: LIMK2 (UniProt P53671)
[6] = target: LMTK2 (UniProt Q8IWU2)
[7] = target: LYN (UniProt P07948)
[8] = target: MAP2K1 (UniProt Q02750)
[9] = target: MAP2K2 (UniProt P36507)
[10] = target: MAP4K2 (UniProt Q12851)

Measured: kinase-Nluc reporter destabilization hit call

CN1CCN(c2ccc(-n3cc(-c4ccncc4OCC4CCNCC4)cn3)cc2)CC1 [MELK-8a (hydrochloride)] (10 µM)
inactive: [1] 0 | [2] 0 | [3] 0 | [4] 0 | [5] 0 | [6] 0 | [7] 0 | [8] 0 | [9] 0 | [10] 0

O=c1c(O)c(-c2ccc(O)c(O)c2)oc2cc(O)c(O)c(O)c12 [Quercetagetin] (10 µM)
inactive: [1] 0 | [2] 0 | [3] 0 | [4] 0 | [5] 0 | [6] 0 | [7] 0 | [8] 0 | [9] 0 | [10] 0

C=CC(=O)N1CCC(c2ccc(C(N)=O)c(-c3ccc(Oc4ccccc4)cc3)n2)CC1 [Orelabrutinib] (2.5 µM)
inactive: [1] 0 | [2] 0 | [3] 0 | [4] 0 | [5] 0 | [6] 0 | [7] 0 | [8] 0 | [9] 0 | [10] 0

CCOC(=O)c1c(C)[nH]c(C=C2C(=O)Nc3ccccc32)c1C (10 µM)
inactive: [1] 0 | [2] 0 | [3] 0 | [4] 0 | [5] 0 | [6] 0 | [7] 0 | [8] 0 | [9] 0 | [10] 0

CCOC(=O)c1c(Nc2ccccc2Cl)oc(/C=C2\C=Nc3ncccc32)c1O (10 µM)
inactive: [1] 0 | [2] 0 | [3] 0 | [4] 0 | [5] 0 | [6] 0 | [7] 0 | [8] 0 | [9] 0 | [10] 0

COc1cc(N2CCC(N3CCN(C)CC3)CC2)ccc1Nc1ncnc(Nc2ccccc2S(=O)(=O)C(C)C)n1 (10 µM)
inactive: [1] 0 | [2] 0 | [3] 0 | [4] 0 | [5] 0 | [6] 0 | [7] 0 | [8] 0 | [9] 0 | [10] 0

CO/N=C1/C(c2c(O)[nH]c3cc(Cl)c(Cl)cc23)=Nc2ccccc21 (10 µM)
inactive: [1] 0 | [2] 0 | [3] 0 | [4] 0 | [5] 0 | [6] 0 | [7] 0 | [8] 0 | [9] 0 | [10] 0

Cc1cccc(CC(=O)N2CCc3c2ccc(-c2cn(C)c4ncnc(N)c24)c3F)n1 (10 µM)
inactive: [1] 0 | [2] 0 | [3] 0 | [4] 0 | [5] 0 | [6] 0 | [7] 0 | [8] 0 | [9] 0 | [10] 0

By substructure: the entries above with four or more nitrogen atoms.
CN1CCN(c2ccc(-n3cc(-c4ccncc4OCC4CCNCC4)cn3)cc2)CC1 [MELK-8a (hydrochloride)] (10 µM)
inactive: [1] 0 | [2] 0 | [3] 0 | [4] 0 | [5] 0 | [6] 0 | [7] 0 | [8] 0 | [9] 0 | [10] 0

COc1cc(N2CCC(N3CCN(C)CC3)CC2)ccc1Nc1ncnc(Nc2ccccc2S(=O)(=O)C(C)C)n1 (10 µM)
inactive: [1] 0 | [2] 0 | [3] 0 | [4] 0 | [5] 0 | [6] 0 | [7] 0 | [8] 0 | [9] 0 | [10] 0

Cc1cccc(CC(=O)N2CCc3c2ccc(-c2cn(C)c4ncnc(N)c24)c3F)n1 (10 µM)
inactive: [1] 0 | [2] 0 | [3] 0 | [4] 0 | [5] 0 | [6] 0 | [7] 0 | [8] 0 | [9] 0 | [10] 0

(cont.)

Cc1nc2c(NCc3cccc(S(C)(=O)=O)c3)nccn2c1-c1ccc(O)c(F)c1 (10 µM)
inactive: [1] 0 | [2] 0 | [3] 0 | [4] 0 | [5] 0 | [6] 0 | [7] 0 | [8] 0 | [9] 0 | [10] 0

CC1=C(C#N)C(c2ccc3[nH]nc(C)c3c2)C(C#N)=C(C)N1 (10 µM)
inactive: [1] 0 | [2] 0 | [3] 0 | [4] 0 | [5] 0 | [6] 0 | [7] 0 | [8] 0 | [9] 0 | [10] 0

Cc1ccc2c(NS(=O)(=O)c3ccccc3Cl)cccc2c1Oc1ncccc1-c1ccnc(N[C@H]2CCCNC2)n1 (2.5 µM)
inactive: [1] 0 | [2] 0 | [3] 0 | [4] 0 | [5] 0 | [6] 0 | [7] 0 | [8] 0 | [9] 0 | [10] 0

CCC[C@H](C)Oc1nc(N)c2[nH]c(=O)n(CCCCCN3CCCCC3)c2n1 (10 µM)
inactive: [1] 0 | [2] 0 | [3] 0 | [4] 0 | [5] 0 | [6] 0 | [7] 0 | [8] 0 | [9] 0 | [10] 0

O=C(Nc1ccc(Cl)cc1)C1CN(C(=O)c2cccc(-c3ccco3)c2)CC(F)(F)C1 (stereo not drawn) (2.5 µM)
inactive: [1] 0 | [2] 0 | [3] 0 | [4] 0 | [5] 0 | [6] 0 | [7] 0 | [8] 0 | [9] 0 | [10] 0

COc1ccc(-c2cc(=O)c3c(O)cc(O)cc3o2)cc1-c1c(O)cc(O)c2c(=O)cc(-c3ccc(O)cc3)oc12 [Bilobetin] (2.5 µM)
inactive: [1] 0 | [2] 0 | [3] 0 | [4] 0 | [5] 0 | [6] 0 | [7] 0 | [8] 0 | [9] 0 | [10] 0

COc1cc(N2CCC(O)CC2)ccc1Nc1nc(Nc2ccccc2S(=O)(=O)C(C)C)c2[nH]cnc2n1 (10 µM)
inactive: [1] 0 | [2] 0 | [3] 0 | [4] 0 | [5] 0 | [6] 0 | [7] 0 | [8] 0 | [9] 0 | [10] 0

Nc1nc(Nc2ccc3c(c2)CC[C@@H](N2CCCC2)CC3)nn1-c1cc2c(nn1)-c1ccccc1CCC2 [Bemcentinib] (2.5 µM)
inactive: [1] 0 | [2] 0 | [3] 0 | [4] 0 | [5] 0 | [6] 0 | [7] 0 | [8] 0 | [9] 0 | [10] 0

O=c1cc(-c2ccc(O[C@@H]3O[C@H](CO)[C@@H](O)[C@H](O)[C@H]3O)cc2)oc2cc(O)c([C@@H]3O[C@H](CO)[C@@H](O)[C@H](O)[C@H]3O[C@@H]3OC[C@H](O)[C@H](O)[C@H]3O)c(O)c12 [Vaccarin] (10 µM)
inactive: [1] 0 | [2] 0 | [3] 0 | [4] 0 | [5] 0 | [6] 0 | [7] 0 | [8] 0 | [9] 0 | [10] 0

Nc1ccc(C(=O)Nc2cccc(-c3nc(N4CCOCC4)c4oc5ncccc5c4n3)c2)cn1 (10 µM)
inactive: [1] 0 | [2] 0 | [3] 0 | [4] 0 | [5] 0 | [6] 0 | [7] 0 | [8] 0 | [9] 0 | [10] 0

O=C1CCC(N2C(=O)c3cccc(OCCCCCOc4ccc(CC(=O)Nc5cc(C6CCC6)[nH]n5)cc4)c3C2=O)C(=O)N1 (stereo not drawn) [PROTAC CDK9 Degrader-1] (10 µM)
inactive: [1] 0 | [2] 0 | [3] 0 | [4] 0 | [5] 0 | [6] 0 | [7] 0 | [8] 0 | [9] 0 | [10] 0

COc1cc2nnc(C(N)=O)c(Nc3ccc(C)cc3F)c2cc1N1CCN(CCO)CC1 (2.5 µM)
inactive: [1] 0 | [2] 0 | [3] 0 | [4] 0 | [5] 0 | [6] 0 | [7] 0 | [8] 0 | [9] 0 | [10] 0

COc1ccc(CN2CCC(c3ccc4nc(C(=O)N5CCN(Cc6ccc(C(F)(F)F)cc6)CC5)[nH]c4c3)CC2)cn1 (2.5 µM)
inactive: [1] 0 | [2] 0 | [3] 0 | [4] 0 | [5] 0 | [6] 0 | [7] 0 | [8] 0 | [9] 0 | [10] 0

NC(=O)c1c(NC(=O)C2CC2)sc2c1CCCC2 (10 µM)
inactive: [1] 0 | [2] 0 | [3] 0 | [4] 0 | [5] 0 | [6] 0 | [7] 0 | [8] 0 | [9] 0 | [10] 0

Cc1nc(Nc2cnn(C3CCNCC3)c2)nc2c1N(C)C(=O)c1cc3ccccc3cc1N2C (2.5 µM)
inactive: [1] 0 | [2] 0 | [3] 0 | [4] 0 | [5] 0 | [6] 0 | [7] 0 | [8] 0 | [9] 0 | [10] 0

O=C(COc1ccc(Cl)cc1)NC1CCC(NC(=O)COc2ccc(Cl)cc2)CC1 (stereo not drawn) [ISRIB (trans-isomer)] (10 µM)
inactive: [1] 0 | [2] 0 | [3] 0 | [4] 0 | [5] 0 | [6] 0 | [7] 0 | [8] 0 | [9] 0 | [10] 0

NC(=O)c1ccccc1Nc1ccnc(Nc2cccc(O)c2)n1 (10 µM)
inactive: [1] 0 | [2] 0 | [3] 0 | [4] 0 | [5] 0 | [6] 0 | [7] 0 | [8] 0 | [9] 0 | [10] 0

Cc1cncc2cccc(S(=O)(=O)N3CCCNC[C@@H]3C)c12 [H-1152 (dihydrochloride)] (10 µM)
inactive: [1] 0 | [2] 0 | [4] 0 | [5] 0 | [6] 0 | [7] 0 | [8] 0 | [9] 0 | [10] 0

NC(=O)c1sc2c([N+](=O)[O-])cc(C(F)(F)F)cc2[n+]1[O-] [Cyclapolin 9] (10 µM)
inactive: [1] 0 | [2] 0 | [3] 0 | [4] 0 | [5] 0 | [6] 0 | [7] 0 | [8] 0 | [9] 0 | [10] 0

CCCS(=O)(=O)N[C@H]1C[C@@H](N(C)c2ncnc3[nH]ccc23)C1 [Abrocitinib] (10 µM)
inactive: [1] 0 | [3] 0 | [4] 0 | [5] 0 | [6] 0 | [7] 0 | [8] 0 | [9] 0 | [10] 0

N#Cc1cc(-c2ccnc(Nc3ccc(N4CCOCC4)cc3)n2)ccc1OC1CCOCC1 (10 µM)
inactive: [1] 0 | [2] 0 | [3] 0 | [4] 0 | [5] 0 | [6] 0 | [7] 0 | [8] 0 | [9] 0 | [10] 0

N#CC(=C(/N)Sc1ccccc1N)/C(C#N)=C(\N)Sc1ccccc1N (10 µM)
inactive: [1] 0 | [2] 0 | [3] 0 | [4] 0 | [5] 0 | [6] 0 | [7] 0 | [8] 0 | [9] 0 | [10] 0
